These are yes or no findings as the source states them, for the method shown. In cells and extracts the contact can be indirect. Here binding means that the protein was enriched with, or labelled near, the bait; the list need not be complete. Where a sequence is shown, tags or fusion partners need not be part of it.
B1: SecDF (protein, UniProt O32047 1-737)
chain: MKKGRLIAFFLFVLLIGTGLGYFTKPAANNITLGLDLQGGFEVLYDVQPVKKGDKITKDVLVSTVEALNRRANVLGVSEPNIQIEGNNRIRVQLAGVTNQNRAREILATEAQLSFRDANDKELLNGADLVENGAKQTYDSTTNEPIVTIKLKDADKFGEVTKKVMKMAPNNQLVIWLDYDKGDSFKKEVQKEHPKFVSAPNVSQELNTTDVKIEGHFTAQEAKDLASILNAGALPVKLTEKYSTSVGAQFGQQALHDTVFAGIVGIAIIFLFMLFYYRLPGLIAVITLSVYIYITLQIFDWMNAVLTLPGIAALILGVGMAVDANIITYERIKEELKLGKSVRSAFRSGNRRSFATIFDANITTIIAAVVLFIFGTSSVKGFATMLILSILTSFITAVFLSRFLLALLVESRWLDRKKGWFGVNKKHIMDIQDTDENTEPHTPFQKWDFTSKRKYFFIFSSAVTVAGIIILLVFRLNLGIDFASGARIEVQSDHKLTTEQVEKDFESLGMDPDTVVLSGEKSNIGVARFVGVPDKETIAKVKTYFKDKYGSDPNVSTVSPTVGKELARNALYAVAIASIGIIIYVSIRFEYKMAIAAIASLLYDAFFIVTFFSITRLEVDVTFIAAILTIIGYSINDTIVTFDRVREHMKKRKPKTFADLNHIVNLSLQQTFTRSINTVLTVVIVVVTLLIFGASSITNFSIALLVGLLTGVYSSLYIAAQIWLAWKGRELKKDSAQ
B2: MgtE (protein, UniProt O34442 1-451)
chain: MVQNMTYDELILRIIILLRDGKIRDFRSVIDELQPYDMAFIFKEMPEKHRARYLSYLTVDDITDMIGELEREFQLVVLNKVGKTKATLAMNKMDNDDLAQLLEEMDEELKEQLLSSMEASESKAVQLLMNYPADSAGRMMTNRYVWIPQHYTVKDAVVKLKSFAEIAESINYLYVINESKQLVGVLSYRDLILGEPEEKVQDLMFTRVISADALQDQEEVARLIERYDFLAIPVVEENNVLVGIVTVDDIIDVVIREADEDYEKFAASGKDITFDTKAYVAAYRRLPWLILLLFIGLISGSIISYFEDALKQVVALAFFMPMVSGMTGNTGTQSLAVVIRGLSKEEMNKKTIVRLIFREFRTSIFIGAVCSVLIAIVSIIWQGNALLGFVVASSLFLTLIIGTMSGTIIPIILHKLKVDPAIASGPLITTLNDILSLLIYFGIATAFIHSL
B3: FloA (protein, UniProt P54466 1-331)
chain: MDPSTLMILAIVAVAIIVLAVFFTFVPVMLWISALAAGVKISIFTLVGMRLRRVIPNRVVNPLIKAHKAGLNVGTNQLESHYLAGGNVDRVVNALIAAQRANIELTFERCAAIDLAGRDVLEAVQMSVNPKVIETPFIAGVAMDGIEVKAKARITVRANIERLVGGAGEETIVARVGEGIVSTIGSSDNHKKVLENPDMISQTVLGKGLDSGTAFEILSIDIADVDIGKNIGAILQTDQAEADKNIAQAKAEERRAMAVAQEQEMRARVEEMRAKVVEAEAEVPLAMAEALREGNIGVMDYMNIKNIDADTEMRDSFGKLTKDPSDEDRKS
B4: SwrC (protein, UniProt O31501 1-1052)
chain: MNHVINFVLKNKFAVWLMTIIVTAAGLYAGMNMKQESIPDVNMPYLTISTTYPGATPSQVADEVTKPVEQAVQNLDGVSVVTSTSYENASSVMIEYDYEKDMDKAKTEAAEALENVNLPDDAKDPEISRYSLNSFPILTLSVSSDKDNLQELTKQVEDSLVSKLEGIEGVASVQVSGQQVEEVEFSFKEDKLKEYGLDEDTVKQVIQGSDVTTPLGLYTFGNEEKSVVVSGDIETIKDLKNMRIPTASASSAGSSAASQAGAQSAQAAQSAQAAAQVQQSASTAVPTVKLSDIATIKDVKKAESVSRTNGKDSIGINIVKANDANTVEVADDVKAELKKFKEDHKGFNYSATLDMAEPITQSVDTMLSKAIFGAIFAIVIILLFLRDIKSTLISVVSIPLSLLIALLVLQQLDITLNIMTLGAMTVAIGRVVDDSIVVIENIYRRMRLKDEPLRGKALVREATKEMFKPIMSSTIVTIAVFLPLALVGGQIGELFIPFALTIVFALAASLVISITLVPMLAHSLFKKSLTGAPIKAKEHKPGRLANIYKKVLNWALSHKWITSIIAVLMLLGSLFLVPLIGASYLPSEEEKTMQLTYSPEPGETKKEAENEAEKAEKILLDRKHVDTVQYSLGSGSPLAGGDSNGALFYIKYESDTPDFDKEKDNVLKEIQKQSDRGEWKSQDFSSSGNNNELTYYVYGDSENDIKDTVKDIEKIMKDEKDLKNVNSGLSSTYDEYTFVADQEKLSKLGLTASQISQALMSQTSQEPLTTVKKDGKELDVNIKTEKDEYKSVKDLENKKITSATGQEVKIGDVAKVKEGSTSDTVSKRDGKVYADVTGEVTSDNVTAVSAAIQKKIDKLDHPDNVSIDTGGVSADIADSFTKLGLAMLAAIAIVYLVLVITFGGALAPFAILFSLPFTVIGALVGLYVSGETISLNAMIGMLMLIGIVVTNAIVLIDRVIHKEAEGLSTREALLEAGSTRLRPILMTAIATIGALIPLALGFEGGSQVISKGLGVTVIGGLISSTLLTLLIVPIVYEVLAKFRKKKPGTEEE
B5: OppF (protein, UniProt P24137 1-305)
chain: MTEKLLEIKHLKQHFVTPRGTVKAVDDLSFDIYKGETLGLVGESGCGKSTTGRSIIRLYEATDGEVLFNGENVHGRKSRKKLLEFNRKMQMIFQDPYASLNPRMTVADIIAEGLDIHKLAKTKKERMQRVHELLETVGLNKEHANRYPHEFSGGQRQRIGIARALAVDPEFIIADEPISALDVSIQAQVVNLMKELQKEKGLTYLFIAHDLSMVKYISDRIGVMYFGKLVELAPADELYENPLHPYTKSLLSAIPLPDPDYERNRVRQKYDPSVHQLKDGETMEFREVKPGHFVMCTEAEFKAFS
B6: SdhA (protein, UniProt P08065 1-586)
chain: MSQSSIIVVGGGLAGLMATIKAAESGMAVKLFSIVPVKRSHSVCAQGGINGAVNTKGEGDSPWEHFDDTVYGGDFLANQPPVKAMCEAAPSIIHLLDRMGVMFNRTPEGLLDFRRFGGTQHHRTAYAGATTGQQLLYALDEQVRRYEVAGLVTKYEGWEFLGAVLDDDRTCRGIVAQNLTNMQIESFRSDAVIMATGGPGIIFGKSTNSMINTGSAASIVYQQGAYYANGEFIQIHPTAIPGDDKLRLMSESARGEGGRVWTYKDGKPWYFLEEKYPAYGNLVPRDIATREIFDVCVNQKLGINGENMVYLDLSHKDPKELDIKLGGIIEIYEKFMGDDPRKLPMKIFPAVHYSMGGLWVDYDQMTNIPGLFAAGECDYSMHGGNRLGANSLLSAIYGGMVAGPNAVKYVNGLESSAEDMSSSLFDAHVKKEEEKWADIMSMDGTENAYVLHKELGEWMTANVTVVRHNDKLLKTDDKIQELMERFKKININDTTKWSNQGAMFTRQFSNMLQLARVITLGAYNRNESRGAHYKPDYPERNDDEWLKTTMAKHVSPYEAPEFEYQDVDVSLITPRKRDYSKKKVAK
B7: YknW (protein, UniProt O31709 1-231)
chain: METNVEKNSGTATEKPSLFGVITSPSVQFERIRERPAVWGPLLIVAAIIIVGAVLQSLGTDYSELLKSQDTQGLSAEQMETVATITKFGGMAGAIIGGIAALFIAPLIYWLCVKVSGGVTTYKKMLSLSLFVSLISSLGLLVNGIVAFTTDVNPLYSTTSLAGIIPSDGALASVLNTFEIFSIWSFVLLAIGLHKTGGISKKAGWISAIILFGILVVFSLFSGLINSVAGA
B8: AtpF (protein, UniProt P37814 1-170)
chain: MSQLPLELGLSFNGGDILFQLLAMLILLALLKKYALGPLLNIMKQREDHIAGEITSAEEKNKEAQQLIEEQRVLLKEARQESQTLIENAKKLGEKQKEEIIQAARAESERLKEAARTEIVKEKEQAVSALREQVASLSVMIASKVIEKELDEQAQEKLIQDYLKEVGESR
B9: QoxA (protein, UniProt P34957 26-321)
chain: CSNASVLDPKGPVAEQQSDLILLSIGFMLFIVGVVFVLFTIILVKYRDRKGKDNGSYNPEIHGNTFLEVVWTVIPILIVIALSVPTVQTIYSLEKAPEATKDKEPLVVYATSVDWKWVFSYPEQDIETVNYLNIPVDRPILFKISSADSMASLWIPQLGGQKYAMAGMLMDQYLQADKVGTYEGRNANFTGEHFADQEFDVNAVTEKDFNSWVKKTQNEAPKLTKEKYDELMLPENVDELTFSSTHLKYVDHGQDAEYAMEARKRLGYQAVSPHSKTDPFENVKKNEFKKSDDTEE
B10: FloT (protein, UniProt O32076 1-509)
chain: MTMPIIMIIGVVFFLLIALIAVFITKYRTAGPDEALIVTGSYLGNKNVHVDEGGNRIKIVRGGGTFVLPVFQQAEPLSLLSSKLDVSTPEVYTEQGVPVMADGTAIIKIGGSIGEIATAAEQFLGKSKDDREQEAREVLEGHLRSILGSMTVEEIYKNREKFSQEVQRVASQDLAKMGLVIVSFTIKDVRDKNGYLESLGKPRIAQVKRDADIATAEADKETRIKRAEADKDAKKSELERATEIAEAEKINQLKMAEFRREQDTAKANADQAYDLETARARQQVTEQEMQVKIIERQKQIELEEKEILRRERQYDSEVKKKADADRYSVEQSAAAEKAKQLAEADAKKYSIEAMAKAEAEKVRIDGLAKAEAEKAKGETEAEVIRLKGLAEAEAKEKIAAAFEQYGQAAIFDMIVKMLPEYAKQAAAPLSNIDKITVVDTGGSGESSGANKVTSYATNLMSSLQESLKASSGIDVKEMLENFSGKGNVKQSINELTNEIKEAKTIQKSE

target: T1, MeeY-FLAG (Bacillus subtilis) (UniProt O34997); assay: affinity purification with mass spectrometry; C-terminally FLAG-tagged bait captured on anti-FLAG M2 magnetic beads from B. subtilis lysate (overnight LB culture with 50 uM Mn; lysozyme, sonication, DNase, 1% Triton X-100), 30 °C 3 h, three PBS washes; eluted with glycine (pH 3) for 30 min at room temperature; LC-MS/MS, at least 2 peptides
T1 sequence: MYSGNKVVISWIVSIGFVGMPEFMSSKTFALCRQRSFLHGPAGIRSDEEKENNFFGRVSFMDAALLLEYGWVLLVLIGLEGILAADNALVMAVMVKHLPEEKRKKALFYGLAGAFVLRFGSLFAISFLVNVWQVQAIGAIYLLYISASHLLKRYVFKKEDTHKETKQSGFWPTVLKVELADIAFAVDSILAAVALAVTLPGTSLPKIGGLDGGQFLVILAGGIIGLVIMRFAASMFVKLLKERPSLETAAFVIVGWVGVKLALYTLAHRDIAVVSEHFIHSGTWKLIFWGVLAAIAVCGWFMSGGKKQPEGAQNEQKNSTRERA

Row | Binder | binding
1 | B1 | binds
2 | B2 | binds

target: T1, MeeY-FLAG (Bacillus subtilis); assay: affinity purification with mass spectrometry; C-terminally FLAG-tagged bait captured on anti-FLAG M2 magnetic beads from B. subtilis lysate (overnight LB culture with 50 uM Mn; lysozyme, sonication, DNase, 1% Triton X-100), 30 °C 3 h, three PBS washes; eluted by heating at 95 °C for 10 min; LC-MS/MS, at least 2 peptides

Row | Binder | binding
3 | B3 | binds
4 | B4 | binds
5 | B5 | binds
6 | B6 | binds
7 | B1 | binds
8 | B7 | binds
9 | B8 | binds
10 | B9 | binds

target: T2, MeeF-FLAG (Bacillus subtilis) (UniProt O34447); assay: as above
T2 sequence: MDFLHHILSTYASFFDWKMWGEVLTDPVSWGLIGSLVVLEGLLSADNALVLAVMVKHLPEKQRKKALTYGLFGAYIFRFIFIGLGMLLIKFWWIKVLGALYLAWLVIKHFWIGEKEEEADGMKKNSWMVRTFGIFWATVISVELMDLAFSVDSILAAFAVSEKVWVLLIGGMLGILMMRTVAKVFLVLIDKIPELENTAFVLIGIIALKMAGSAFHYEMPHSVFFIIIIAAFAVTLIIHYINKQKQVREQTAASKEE

Row | Binder | binding
11 | B3 | binds
12 | B4 | binds
13 | B5 | binds
14 | B6 | binds
15 | B1 | binds
16 | B7 | binds
17 | B10 | binds
